The exact form of at least one protein or probe is not confirmed.

Data set [1] has as its system HNF-4α (full length). The data set can be described thus: EMSA. The following applies: binding rises with His-HNF-4α concentration; activated by C12-C16 saturated acyl-CoAs (maximal with myristoyl-CoA), inhibited by stearoyl-CoA; purified recombinant protein; protein details: His6. Background: A gel shift assay detects complexes by their altered migration in electrophoresis.

The test system of data set [2] is HNF-4α (full length). The data set can be described thus: activity assay. The following applies: in vitro transcription of G-less cassette with three C3P copies, HeLa nuclear extract; recombinant HNF-4α (tag not restated), approaches saturation at 200 ng; purified recombinant protein; protein details: His6.

On to “GCAGGTGACCTTTGCCCAGCGCC (double strand) [C3P element of apo CIII promoter (-87/-66)]”, for which, in the data set with HNF-4α (full length) [1], the binding result is given as “binds”. Further, the “activity on this sequence” value in the data set on HNF-4α (full length) [2] is recorded as “active”.

These data come from patent US20040171585.
